According to publication PMC11122405:
Numbering of substitutions follows the chain as printed. These are yes or no findings as the source states them, for the method shown. In cells and extracts the contact can be indirect. Some results given as binding are weak or reduced against the parent protein; the word gives no strength. Where a sequence is shown, tags or fusion partners need not be part of it.

How the values were obtained:
Assay in all cases: FRET or BRET; FRET index by confocal microscopy (FV10i Olympus, ImageJ) in single Flp-In T-REx HEK293 cells coexpressing LPA3-GFP (WT or mutant) and β-arrestin 2-mCherry; baseline, or 1 µM LPA or 1 µM PMA for up to 60 min
[1] = target: T1, LPA3 receptor Ctail mutant (S321A, S325A, S331A, T333V, S335A, Y337F, S343A), GFP-tagged (UniProt Q9UBY5)
T1 sequence: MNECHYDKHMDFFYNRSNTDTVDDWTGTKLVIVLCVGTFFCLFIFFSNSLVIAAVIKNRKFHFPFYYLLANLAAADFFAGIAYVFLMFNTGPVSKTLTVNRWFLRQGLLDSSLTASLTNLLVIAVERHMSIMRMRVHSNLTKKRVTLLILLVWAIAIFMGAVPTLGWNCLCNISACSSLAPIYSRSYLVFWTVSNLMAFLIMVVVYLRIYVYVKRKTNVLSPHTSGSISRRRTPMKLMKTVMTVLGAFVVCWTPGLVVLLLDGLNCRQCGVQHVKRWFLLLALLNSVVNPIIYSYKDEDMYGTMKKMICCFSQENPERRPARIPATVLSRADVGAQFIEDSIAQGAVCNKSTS

[2] = target: T2, LPA3 receptor IL3 mutant (S221A, T224A, S225A, S229A), GFP-tagged (UniProt Q9UBY5)
T2 sequence: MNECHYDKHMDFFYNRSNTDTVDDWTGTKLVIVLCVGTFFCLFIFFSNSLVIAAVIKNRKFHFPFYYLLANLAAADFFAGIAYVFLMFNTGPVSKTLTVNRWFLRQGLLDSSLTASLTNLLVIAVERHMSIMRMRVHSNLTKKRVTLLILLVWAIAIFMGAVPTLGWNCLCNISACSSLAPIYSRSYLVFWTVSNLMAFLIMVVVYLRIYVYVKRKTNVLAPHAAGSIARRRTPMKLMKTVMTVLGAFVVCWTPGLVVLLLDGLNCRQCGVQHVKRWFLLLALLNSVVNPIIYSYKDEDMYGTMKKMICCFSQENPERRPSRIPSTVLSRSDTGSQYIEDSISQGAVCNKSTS

[3] = target: T3, LPA3 receptor IL3/Ctail mutant (all sites of the IL3 and Ctail mutants substituted), GFP-tagged (UniProt Q9UBY5)
T3 sequence: T1 sequence with S221A, T224A, S225A, S229A

[4] = target: T4, wild-type (WT) LPA3-GFP receptor construct (UniProt Q9UBY5)
T4 sequence: T2 sequence with A221S, A224T, A225S, A229S

Measured: binding

β-arrestin 2 tagged with the mCherry protein (from UniProt P32121 1-409)
binds: all assays above
